These are yes or no findings as the source states them, for the method shown. Binding seen in cells or lysates may run through a third protein. Some entries that bind do so weakly or less than the wild type. For some assays here: Sequences can lack the tags named with a protein.
How the values were obtained:
[1] = target: Flag-tagged FBXO4 (human) (UniProt Q9UKT5); assay: co-IP; HEK293 E6AP K/O cells with GFP or GFP-18E6 and Flag-FBXO4; CBZ 20 nM for 5 h; anti-Flag immobilized on agarose beads; blot with anti-GFP
[2] = target: GST-tagged HPV-18E6 (HPV-18) (UniProt P06463); assay: pull-down; purified GST-18E6 or GST alone with in vitro translated FBXO4; immunoblot with anti-FBXO4; only the target purified
[3] = target: GFP-tagged HPV-18E6, full length (HPV-18) (UniProt P06463); assay: co-IP; HEK293 E6AP K/O cells with GFP, GFP-18E6 or its mutants and Flag-FBXO4; CBZ 20 nM for 5 h; anti-GFP antibody overnight at 4°C, protein G beads; FBXO4 detected with anti-FBXO4
[4] = target: GFP-tagged HPV-18E6, full length (HPV-18) (UniProt P06463); assay: co-IP; HEK293 E6AP K/O cells stably expressing GFP-18E6, transfected with Flag-FBXO4 and HA-E6AP; CBZ 20 nM for 5 h; anti-GFP precipitation; western blot
[5] = target: GST-tagged HPV-18E6 (HPV-18) (UniProt P06463); assay: pull-down; GST-18E6 or GST alone incubated with extracts of HEK293 E6AP K/O cells transfected with HA-E6AP, Flag-FBXO4 or both; western blot; only the target purified
[6] = target: T1, GST-tagged HPV-11E6 (HPV-11) (UniProt P04019); assay: pull-down; GST-tagged HPV-11, -16, -18 E6 or GST on glutathione agarose, incubated with extract of HEK293 E6AP K/O cells expressing Flag-FBXO4 (overnight at 4°C by the results; 2 h at room temperature by the methods); lysis buffer 50 mM HEPES pH 7.4, 150 mM NaCl, 1 mM MgCl2, 1% Triton X-100; only the target purified
T1 sequence: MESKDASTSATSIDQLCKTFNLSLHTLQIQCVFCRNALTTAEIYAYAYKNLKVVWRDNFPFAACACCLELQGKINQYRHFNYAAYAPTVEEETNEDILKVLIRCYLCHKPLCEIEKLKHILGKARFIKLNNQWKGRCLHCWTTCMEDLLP

Protein sequences, listed by entry. Tags and fused reporters are not part of them.
UniProt Q9UKT5: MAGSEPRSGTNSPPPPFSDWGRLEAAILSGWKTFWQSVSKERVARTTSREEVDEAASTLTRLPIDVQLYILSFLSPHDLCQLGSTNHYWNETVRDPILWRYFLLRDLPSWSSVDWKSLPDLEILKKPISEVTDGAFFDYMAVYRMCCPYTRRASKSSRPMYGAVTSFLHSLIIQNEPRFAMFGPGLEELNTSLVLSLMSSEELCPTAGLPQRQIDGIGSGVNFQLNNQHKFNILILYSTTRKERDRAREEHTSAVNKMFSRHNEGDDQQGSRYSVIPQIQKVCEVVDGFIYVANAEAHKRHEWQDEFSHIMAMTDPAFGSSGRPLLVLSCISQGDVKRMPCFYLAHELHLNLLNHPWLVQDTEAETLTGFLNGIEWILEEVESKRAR
UniProt P06463: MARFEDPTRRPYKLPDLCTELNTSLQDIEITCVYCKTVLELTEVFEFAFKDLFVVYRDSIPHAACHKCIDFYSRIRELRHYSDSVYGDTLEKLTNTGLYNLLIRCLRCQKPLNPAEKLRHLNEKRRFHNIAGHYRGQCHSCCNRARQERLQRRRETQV
UniProt P03126: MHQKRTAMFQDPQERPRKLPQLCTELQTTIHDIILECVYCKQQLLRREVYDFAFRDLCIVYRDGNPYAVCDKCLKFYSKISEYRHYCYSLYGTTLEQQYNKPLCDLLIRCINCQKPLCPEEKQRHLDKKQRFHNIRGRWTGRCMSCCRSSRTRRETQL

[7] = target: GST-tagged HPV-16E6 (HPV-16) (UniProt P03126); assay: as above
[8] = target: GST-tagged HPV-18E6 (HPV-18) (UniProt P06463); assay: as above
[9] = target: GFP-tagged HPV-18E6, full length (HPV-18) (UniProt P06463); assay: co-IP; ubiquitination assay: 293 E6AP K/O cells stably expressing GFP-18E6, transfected with HA-UB with or without Flag-FBXO4; anti-GFP precipitation; FBXO4 detected with anti-FBXO4
[10] = target: endogenous FBXO4 of HeLa cells (human (endogenous in HeLa)) (UniProt Q9UKT5); assay: co-IP; HeLa cells, siLuci (control; E6AP present), 72 h; lysate precipitated with anti-FBXO4 (anti-GFP as control antibody) overnight at 4°C; endogenous proteins
[11] = target: endogenous FBXO4 of HeLa cells (human (endogenous in HeLa)) (UniProt Q9UKT5); assay: co-IP; HeLa cells, siE6AP (E6AP silenced), 72 h; lysate precipitated with anti-FBXO4 (anti-GFP as control antibody) overnight at 4°C; endogenous proteins

GFP-tagged HPV-18E6, full length (from UniProt P06463 1-158)
binding [1]: binds

in vitro translated FBXO4 (from UniProt Q9UKT5 1-387)
binding [2]: binds

Flag-tagged FBXO4 (from UniProt Q9UKT5 1-387)
binding [3]: binds | binding [4]: binds | binding [5]: binds | binding [6]: binds | binding [7]: binds | binding [8]: binds | binding [9]: binds

endogenous HPV-18E6 of HeLa cells (from UniProt P06463 1-158)
binding [10]: binds weakly | binding [11]: binds
